# Laboratory results reported in the supplement of paper PMC4604168 (melanoma cell lines).
# This is one part of the list. Many values rest on one well or one pass, so single values are uncertain.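 The apoptosis fraction was the count of cleaved-PARP antibody-stained nuclei relative to all DNA-stained nuclei, imaged in 1,536-well plates. Screening doses were set so most cells survived, and baseline and induced cleaved-PARP levels vary greatly across cell lines.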
# System: WM1716
# Experiment: cleaved PARP positive nuclei fraction relative to DMSO control; melanoma cells; higher = more apoptosis
# Conditions: library dose: low library concentration; 72 h
row,SMILES,cleaved PARP positive nuclei fraction
1,"Cc1nc(Nc2ncc(C(=O)Nc3c(C)cccc3Cl)s2)cc(N2CCN(CCO)CC2)n1 [dasatanib] + Cn1c(Nc2ccc(C(F)(F)F)cc2)nc2cc(Oc3ccnc(-c4ncc(C(F)(F)F)[nH]4)c3)ccc21 [CHIR265] (first compound 0.004 µM, partner dose 0.08 µM)",102%
2,"CC(C)(C)c1cnc(CSc2cnc(NC(=O)C3CCNCC3)s2)o1 + Cc1cc(N2CCOCC2)cc2[nH]c(-c3c(NC[C@@H](O)c4cccc(Cl)c4)cc[nH]c3=O)nc12 [BMS536924] (first compound 0.01 µM, partner dose 0.2 µM)",113%
3,"OCc1c[nH]c2ccccc12 [Indole-3-carbinol] + Nc1cccc2c1CN(C1CCC(=O)NC1=O)C2=O [lenalidomide] (first compound 0.8 µM, partner dose 1 µM)",39.2%
4,"Cn1c(Nc2ccc(C(F)(F)F)cc2)nc2cc(Oc3ccnc(-c4ncc(C(F)(F)F)[nH]4)c3)ccc21 + Nc1cccc2c1CN(C1CCC(=O)NC1=O)C2=O [lenalidomide] (first compound 0.08 µM, partner dose 1 µM)",103%
5,"Clc1ccc(Nc2nnc(Cc3ccncc3)c3ccccc23)cc1 [vatalanib] + Cc1nc(Nc2ncc(C(=O)Nc3c(C)cccc3Cl)s2)cc(N2CCN(CCO)CC2)n1 [dasatanib] (first compound 2 µM, partner dose 0.004 µM)",186%
6,"OCc1c[nH]c2ccccc12 [Indole-3-carbinol] + O=S(=O)(c1ccccc1)N(CC(F)(F)F)c1ccc(C(O)(C(F)(F)F)C(F)(F)F)cc1 [T0901317] (first compound 0.8 µM, partner dose 1.4 µM)",97.8%
